# Patent US20110158994A1
# The chains behind the UniProt entries cited, without tags or fusion partners. Residues count along the entry.
# UniProt P35968, residues 20-764: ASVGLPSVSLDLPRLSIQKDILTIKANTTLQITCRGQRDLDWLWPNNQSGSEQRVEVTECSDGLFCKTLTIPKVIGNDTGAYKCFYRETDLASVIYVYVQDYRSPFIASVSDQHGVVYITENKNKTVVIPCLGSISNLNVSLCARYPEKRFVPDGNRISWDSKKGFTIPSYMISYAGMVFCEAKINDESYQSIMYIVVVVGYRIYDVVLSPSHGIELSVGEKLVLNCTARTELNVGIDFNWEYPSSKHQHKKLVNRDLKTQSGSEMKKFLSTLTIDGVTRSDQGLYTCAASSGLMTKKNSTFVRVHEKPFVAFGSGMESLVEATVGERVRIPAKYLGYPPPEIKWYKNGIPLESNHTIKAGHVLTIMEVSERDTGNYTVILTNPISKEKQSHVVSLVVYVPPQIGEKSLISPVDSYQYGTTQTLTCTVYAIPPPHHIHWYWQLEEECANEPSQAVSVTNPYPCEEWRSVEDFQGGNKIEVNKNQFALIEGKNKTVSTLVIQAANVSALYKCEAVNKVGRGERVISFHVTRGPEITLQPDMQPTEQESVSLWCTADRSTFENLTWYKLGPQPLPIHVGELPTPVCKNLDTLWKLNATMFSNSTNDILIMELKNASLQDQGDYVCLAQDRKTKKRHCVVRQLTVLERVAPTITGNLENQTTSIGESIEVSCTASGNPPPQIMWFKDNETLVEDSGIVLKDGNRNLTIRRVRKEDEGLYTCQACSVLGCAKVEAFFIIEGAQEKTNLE
# Results are given in words; binding and its absence hold for the method and conditions named. Some entries that bind do so weakly or less than the wild type.
# Biological target: Human VEGFR-2 (R&D systems, Inc.; catalog #357-KD) (human) (UniProt P35968)
# Assay: phage ELISA: VEGFR-2 on plate, phage solution, anti-M13-HRP, OD450
row,Binder,binding
1,HIKAGQWF [Polypeptide number 9 displayed on phage],binds
2,WAIHKPWP [Polypeptide number 14 displayed on phage],binds
3,YQDKSHGGF [Polypeptide number 15 displayed on phage],binds
4,FEGTYGGEV [Polypeptide number 16 displayed on phage],binds
5,HLNMRYQWI [Polypeptide number 17 displayed on phage],binds
6,HINAGQWF [Polypeptide number 10 displayed on phage],binds
7,HITDGQWF [Polypeptide number 11 displayed on phage],binds
8,LLPSG [Polypeptide number 20 displayed on phage],binds
9,GYEWQY [Polypeptide number 5 displayed on phage],binds
10,DGSGPPTN [Polypeptide number 8 displayed on phage],binds
11,WSLGRPFP [Polypeptide number 12 displayed on phage],binds
12,KHKNQATG [Polypeptide number 13 displayed on phage],binds
